This note sets out measurements from patent publication US20070259094A1, “N-acetylglucosamine as a food and beverage additive” (priority 2002, published 2007).

Data set [1] is described as follows: Taste and smell of aqueous solution. The conditions noted are these: for smell of solution / taste of solution: 2 grams in 180 mL of water; for Taste: table Glucosamine Characteristics.
The nature of data set [2]: N-Acetylglucosamine Taste Test (taste panel, 100 millimeter scale). The conditions noted are these: average, 10 subjects (A6: three).

Each structure is given as a SMILES string.

As for `N[C@H]1C(O)O[C@H](CO)[C@@H](O)[C@@H]1O.O=S(=O)(O)O` (stereo partly shown) [Glucosamine Sulphate], in data set [1], the smell of solution result was “slightly fishy”; the taste of solution entry is listed as “unpalatable described as salty, sour to bitter”; the Taste result was “Fishy and unpalatable”. Besides, in data set [2], the “Like the Taste (1 to 100)” value was found to be 3 and the “Sweetness Score (1 to 100)” value is on record as 8.7.
For the compound `Cl.N[C@H]1C(O)O[C@H](CO)[C@@H](O)[C@@H]1O` (stereo partly shown) [Glucosamine hydrochloride], in data set [1], the smell of solution result was “slightly fishy”; the taste of solution entry was “unpalatable described as salty, sour to bitter”; the Taste entry is “Salty, sour to very bitter”.
Consider `CC(=O)N[C@H]1C(O)O[C@H](CO)[C@@H](O)[C@@H]1O` (stereo partly shown) [N-Acetylglucosamine, N-acetylglucosamine], for which, in data set [1], the smell of solution entry is given as “no smell”, the taste of solution entry was “slightly sweetish taste” and the Taste result is on record as “Slightly sweet”. In data set [2], the “Like the Taste (1 to 100)” value came to 52.8 and the “Sweetness Score (1 to 100)” value came out at 35.6.
